Laboratory results reported in patent publication US9271962B2 (NORTHEASTERN UNIVERSITY, priority 2008, dated 2016).
Some results were stated once for a whole list of compounds, not compound by compound.

Target: T1, ΔTM rFAAH (Rattus norvegicus, UniProt P97612)
T1 construct: 15 ug of ΔTM rFAAH (cell lysate obtained by recombinant procedure); made in house
T1 sequence (P97612 30-579 limits assumed): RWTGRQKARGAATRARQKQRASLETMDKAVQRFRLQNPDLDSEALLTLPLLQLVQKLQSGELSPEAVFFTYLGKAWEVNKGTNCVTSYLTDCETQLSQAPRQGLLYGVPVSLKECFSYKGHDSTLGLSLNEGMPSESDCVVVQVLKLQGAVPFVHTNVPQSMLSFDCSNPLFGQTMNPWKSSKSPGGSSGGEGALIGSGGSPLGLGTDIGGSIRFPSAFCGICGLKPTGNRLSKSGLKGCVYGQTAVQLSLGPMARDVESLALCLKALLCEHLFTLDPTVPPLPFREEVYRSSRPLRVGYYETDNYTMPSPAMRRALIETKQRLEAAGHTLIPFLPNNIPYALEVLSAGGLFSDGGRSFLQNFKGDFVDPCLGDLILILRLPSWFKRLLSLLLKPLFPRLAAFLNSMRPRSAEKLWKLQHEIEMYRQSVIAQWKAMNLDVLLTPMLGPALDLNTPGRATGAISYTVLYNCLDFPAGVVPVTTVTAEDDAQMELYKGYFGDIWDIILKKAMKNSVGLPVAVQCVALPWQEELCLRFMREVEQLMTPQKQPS
Experiment: Fluorescent enzyme assay, FAAH (AAMCA hydrolysis)
Format: biochemical
Conditions: same range printed for every compound of Table 4
Protocol: Some analogs were tested for their FAAH/MGL inhibitory activity, which is expressed as % of inhibition (Tables 2, 3, and 4 below). The percentage of inhibition results from three-point assay (three concentrations of inhibitor are used) and it is less accurate (preliminary screening) than the IC50/Ki values that are determined from eight-point assay (eight different concentrations of inhibitor were used). The percentage of inhibition describes the percentage by which the inhibitor reduces the velocity/rate of AAMCA (arachidonoyl-7-amino-4-methylcoumarin amide) or AHMMCE (arachidonoyl-7-hydroxy-6-methoxy-4-methylcoumarin ester) hydrolysis by FAAH or MGL respectively. The IC50 is the concentration of the inhibitor, which results in 50% inhibition of the velocity/rate of AAMCA (arachidonoyl 7-amino-4-methylcoumarin amide) hydrolysis by FAAH or AHMMCE (Arachidonoyl, 7-hydroxy-6-methoxy-4-methylcoumarin ester) hydrolysis by MGL. The Ki value is the affinity constant and describes the ability of the compounds to inhibit the function of FAAH or MGL. The lower the IC50/Ki values, the higher the affinity of the inhibitor for the enzyme and the higher its inhibitory activity. A detailed description of the methods used to test inhibitory activity of compounds is given below.
The enzyme (FAAH and MGL) assays were performed in 96 well plates (Coster #3650) in a total volume of 200 uL. Fluorogenic substrate AAMCA (arachidonoyl 7-amino-4-methylcoumarin amide) for FAAH and AHMMCE (arachidonoyl 7-hydroxy-6-methoxy-4-methylcoumarin ester) for MGL were used using BioTek Synergy HT Microplate Reader. Compounds and substrates were dissolved in DMSO provide a 10 mM stock solution and kept as a stock solution at −20° C. until used for assay. Stock solutions were thawed and reconstituted in 50:50 DMSO/assay buffer to a final DMSO concentration per well below 8%. This ensures that the compounds and substrate are in solution during assay. […] Appropriate substrate was added to adjust the final concentration in each well to 20 uM for FAAH (2× Km) and 10 uM for MGL (1×KM). Fluorescence readings were performed at λex=360/λem=460 for 4 h using Kinetic assay protocol at every 20 min (the fluorescent product coumarin produced is quantitated by this procedure). The readings at 3 h for FAAH and 2 h for MGL (linear maximum hydrolysis kinetics of enzyme on substrate) were used to calculate percent inhibition based on controls. Compounds which had more than 50 percent inhibition at 10 uM were selected for dose response study to determine IC50 values. The dose response at 8 concentration points was performed as with the screening assay except that compounds were serially diluted to 8 concentration points which were chosen based on IC50 value, which were calculated from the screening assay results. Assays are run twice in triplicates and Graphpad Prism software is used to plot inhibition data to obtain IC50 values.

Molecule | FAAH Ki [nM − 100 μM] | Ki [µM]
CN(C)S(=O)(=O)n1cnc(-c2ccccc2)c1 [Compound 41, N,N-dimethyl-4-phenyl-1H-imidazole-1-sulfonamide] | 0.1 | –
CN(C)C(=O)n1nnc2cccnc21 [Compound 58] | 0.1 | –
CN(C)S(=O)(=O)n1cnnc1 [Compound 40, N,N-dimethyl-4H-1,2,4-triazole-4-sulfonamide] | 0.1 | –
CN(C)S(=O)(=O)n1nnc2ccccc21 [Compound 42, N,N-dimethyl-1H-benzo[d][1,2,3]-triazole-1-sulfonamide] | 0.1 | –
CN(C)C(=O)n1cnc2ccncc21 [Compound 69] | 0.1 | –
CN(C)C(=O)n1ccnc1 [Compound 71] | 0.1 | –
N,N-dimethyl-1H-benzimidazole-1-carboxamide [Compound 67] | – | 0.0001 to 100
CN(C)C(=O)n1cnc2cccnc21 [Compound 68, N,N-dimethyl-3H-imidazo[4,5-b]pyridine-3-carboxamide] | 0.1 | –
CN(C)C(=O)n1cnc(Br)c1 [Compound 72] | 0.1 | –
